Earlier results in patent US8563616B2, “Desensitizing drug product” (priority 2009, dated 2013).

Details: in the mixtures that formed a homogenous oil; cited from earlier work

Question: With `CCN(CC)CC(=O)Nc1c(C)cccc1C` [Lidocaine, lidocaine] as the compound, how does the chemical stability read?
Answer: Its chemical stability is “chemically stable”.
